These are yes or no findings as the source states them, for the method shown. For part of these data: Binding calls can cover weak binding; strength is not graded here. Where a sequence is shown, tags or fusion partners need not be part of it.

Holding throughout (assay): pull-down; GST fusion proteins or GST on glutathione agarose beads, incubated with purified bovine tubulin in ip buffer with 20 µM taxol and 2 mM GTP (microtubules) overnight at 4°C; blot with tubulin antibody; both purified
Assay [1] addresses T1, Chro-421 (601–926), truncated COOH-terminal domain of Chromator, GST-fusion protein (Drosophila) (UniProt Q86BS3).
T1 sequence: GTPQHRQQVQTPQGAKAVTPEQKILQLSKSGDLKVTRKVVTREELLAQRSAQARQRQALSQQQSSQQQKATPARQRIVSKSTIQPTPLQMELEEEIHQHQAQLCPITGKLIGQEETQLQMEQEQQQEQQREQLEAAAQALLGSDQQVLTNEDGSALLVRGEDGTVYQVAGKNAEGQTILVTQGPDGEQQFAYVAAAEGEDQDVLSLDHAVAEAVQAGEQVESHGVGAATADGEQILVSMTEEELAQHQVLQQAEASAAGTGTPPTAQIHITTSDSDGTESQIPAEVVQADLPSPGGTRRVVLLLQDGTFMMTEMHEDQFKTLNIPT

Assay [2] deals with T2, Chro-FL (1–926), full-length Chromator GST-fusion protein (Drosophila) (UniProt Q86BS3).
T2 sequence: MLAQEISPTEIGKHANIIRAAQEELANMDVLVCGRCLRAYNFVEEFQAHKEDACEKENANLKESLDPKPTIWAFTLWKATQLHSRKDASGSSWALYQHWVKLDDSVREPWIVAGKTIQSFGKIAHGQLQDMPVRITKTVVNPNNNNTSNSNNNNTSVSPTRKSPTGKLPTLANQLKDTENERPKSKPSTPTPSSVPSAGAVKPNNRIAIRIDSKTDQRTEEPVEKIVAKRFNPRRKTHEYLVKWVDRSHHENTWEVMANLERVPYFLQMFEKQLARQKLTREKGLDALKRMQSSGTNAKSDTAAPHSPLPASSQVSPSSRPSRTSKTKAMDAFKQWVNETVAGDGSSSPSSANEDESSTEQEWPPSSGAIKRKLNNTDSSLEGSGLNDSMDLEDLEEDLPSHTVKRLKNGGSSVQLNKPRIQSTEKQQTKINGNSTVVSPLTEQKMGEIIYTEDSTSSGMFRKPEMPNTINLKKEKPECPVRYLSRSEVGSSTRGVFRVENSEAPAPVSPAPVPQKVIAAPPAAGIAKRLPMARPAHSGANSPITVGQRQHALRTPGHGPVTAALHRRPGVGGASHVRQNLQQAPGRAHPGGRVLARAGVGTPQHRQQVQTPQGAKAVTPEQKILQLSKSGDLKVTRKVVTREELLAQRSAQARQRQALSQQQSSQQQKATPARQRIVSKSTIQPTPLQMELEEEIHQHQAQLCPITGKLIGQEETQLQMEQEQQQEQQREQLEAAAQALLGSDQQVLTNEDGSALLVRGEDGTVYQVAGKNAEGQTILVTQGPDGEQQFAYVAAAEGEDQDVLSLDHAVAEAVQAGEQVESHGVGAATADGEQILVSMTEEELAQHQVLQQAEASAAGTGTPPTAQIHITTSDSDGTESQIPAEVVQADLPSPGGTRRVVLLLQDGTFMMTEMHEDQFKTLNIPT

Assay [3] concerns the target T3, Chro-M (329-600), truncated COOH-terminal domain of Chromator, GST-fusion protein (Drosophila) (UniProt Q86BS3).
T3 sequence: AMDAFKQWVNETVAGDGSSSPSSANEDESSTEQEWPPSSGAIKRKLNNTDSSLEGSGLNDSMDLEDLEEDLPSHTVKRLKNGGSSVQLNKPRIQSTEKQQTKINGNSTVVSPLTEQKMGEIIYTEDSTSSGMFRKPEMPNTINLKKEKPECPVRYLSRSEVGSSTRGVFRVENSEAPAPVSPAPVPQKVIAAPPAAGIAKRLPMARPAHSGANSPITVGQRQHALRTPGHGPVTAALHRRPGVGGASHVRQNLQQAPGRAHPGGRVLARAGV

The target in assay [4] is T4, Chro-M1 (329–460), GST-fusion protein (Drosophila) (UniProt Q86BS3).
T4 sequence: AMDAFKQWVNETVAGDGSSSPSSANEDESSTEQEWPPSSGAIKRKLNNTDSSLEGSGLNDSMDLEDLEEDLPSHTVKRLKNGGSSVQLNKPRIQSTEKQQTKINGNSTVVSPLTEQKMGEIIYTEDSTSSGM

The target of assay [5] is T5, Chro-M2 (389–531), GST-fusion protein (Drosophila) (UniProt Q86BS3).
T5 sequence: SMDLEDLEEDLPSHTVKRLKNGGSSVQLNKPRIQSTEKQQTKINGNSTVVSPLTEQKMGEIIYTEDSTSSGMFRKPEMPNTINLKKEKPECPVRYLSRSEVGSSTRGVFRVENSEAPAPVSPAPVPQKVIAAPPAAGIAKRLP

Assay [6] deals with T6, Chro-M3 (461–600), GST-fusion protein (Drosophila) (UniProt Q86BS3).
T6 sequence: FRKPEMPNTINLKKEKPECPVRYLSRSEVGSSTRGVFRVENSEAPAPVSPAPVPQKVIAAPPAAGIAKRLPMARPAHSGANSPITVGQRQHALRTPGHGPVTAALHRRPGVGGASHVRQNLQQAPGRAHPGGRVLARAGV

Consider purified bovine brain tubulin (complex), for which the binding entry in assay [1] is reported as “no binding”; in assay [2] it was “binds”; in assay [3], “binds”; in assay [4] it was “no binding”; in assay [5], “no binding”; in assay [6], “binds”.

For the origin of these results see PMC4114980.
